# Source: the supplement of paper PMC8728848
# This is one part of the list.
# B1: RsaA-N-term (Caulobacter crescentus), P35828 (protein)
# chain: MAYTTAQLVTAYTNANLGKAPDAATTLTLDAYATQTQTGGLSDAAALTNTLKLVNSTTAVAIQTYQFFTGVAPSAAGLDFLVDSTTNTNDLNDAYYSKFAQENRFINFSINLATGAGAGATAFAAAYTGVSYAQTVATAYDKIIGNAVATAAGVDVAAAVAFLSRQANIDYLTAFVRANTPFTAAADIDLAVKAALIGTILNAATVSGIGGYATATAAMINDLSDGALSTDNAAGVNLFTAYPSSGVSGSTLSLTTGTDTLTGTANNDTFVAGEVAGDGSGWSHPQFEKGG
# Assays:
# Experiment in all cases: glycan array binding signal (z-score within array); higher = stronger binding
# Details in all cases: glycan notation: IUPAC condensed, linker removed
# [1] = target: Neu5Ac(a2-3)Gal6S(b1-4)[Fuc(a1-3)]GlcNAc
# Procedure, shortened: (§1)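 The binding signal is a Z-score computed within each array. Data were drawn from 3228 arrays in the Consortium for Functional Glycomics database, restricted to those with a known protein sequence. Scores were averaged over arrays of the same protein sequence at different concentrations or buffers, and over linkers, and negative values can be taken as non-binding.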
# Neu5Ac(a2-3)GalNAc = target: Neu5Ac(a2-3)GalNAc
# Procedure, shortened: as §1
# [2] = target: Neu5Ac(a2-3)GalNAc(b1-4)GlcNAc
# Procedure, shortened: as §1
# [3] = target: Neu5Ac(a2-3)[GalNAc(b1-4)]Gal(b1-4)Glc
# Procedure, shortened: as §1
# [4] = target: Neu5Ac(a2-3)[GalNAc(b1-4)]Gal(b1-4)GlcNAc
# Procedure, shortened: as §1
# [5] = target: Neu5Ac(a2-3)[GalNAc(b1-4)]Gal(b1-4)GlcNAc(b1-3)GalNAc
# Procedure, shortened: as §1
# [6] = target: Neu5Ac(a2-3)[Neu5Ac(a2-6)]GalNAc
# Procedure, shortened: as §1
# Neu5Ac(a2-6)Gal = target: Neu5Ac(a2-6)Gal
# Procedure, shortened: as §1
# [7] = target: Neu5Ac(a2-6)Gal(b1-3)GlcNAc(b1-3)[Gal(b1-4)GlcNAc(b1-6)]Gal(b1-4)Glc
# Procedure, shortened: as §1
# Neu5Ac(a2-6)Gal(b1-4)Glc = target: Neu5Ac(a2-6)Gal(b1-4)Glc
# Procedure, shortened: as §1
# [8] = target: Neu5Ac(a2-6)Gal(b1-4)GlcNAc
# Procedure, shortened: as §1
# [9] = target: Neu5Ac(a2-6)Gal(b1-4)GlcNAc(b1-2)Man
# Procedure, shortened: as §1
# [10] = target: Neu5Ac(a2-6)Gal(b1-4)GlcNAc(b1-2)Man(a1-3)Man(b1-4)GlcNAc(b1-4)GlcNAc
# Procedure, shortened: as §1
# [11] = target: Neu5Ac(a2-6)Gal(b1-4)GlcNAc(b1-2)Man(a1-3)[Gal(b1-4)GlcNAc(b1-2)Man(a1-6)]Man(b1-4)GlcNAc(b1-4)GlcNAc
# Procedure, shortened: as §1
# [12] = target: Neu5Ac(a2-6)Gal(b1-4)GlcNAc(b1-2)Man(a1-3)[GlcNAc(b1-2)Man(a1-6)]Man(b1-4)GlcNAc(b1-4)GlcNAc
# Procedure, shortened: as §1
# [13] = target: Neu5Ac(a2-6)Gal(b1-4)GlcNAc(b1-2)Man(a1-3)[GlcNAc(b1-4)][Neu5Ac(a2-6)Gal(b1-4)GlcNAc(b1-2)Man(a1-6)]Man(b1-4)GlcNAc(b1-4)GlcNAc
# Procedure, shortened: as §1
# [14] = target: Neu5Ac(a2-6)Gal(b1-4)GlcNAc(b1-2)Man(a1-3)[Man(a1-6)]Man(b1-4)GlcNAc(b1-4)GlcNAc
# Procedure, shortened: as §1
# [15] = target: Neu5Ac(a2-6)Gal(b1-4)GlcNAc(b1-2)Man(a1-3)[Neu5Ac(a2-3)Gal(b1-4)GlcNAc(b1-2)Man(a1-6)]Man(b1-4)GlcNAc(b1-4)GlcNAc
# Procedure, shortened: as §1
# [16] = target: Neu5Ac(a2-6)Gal(b1-4)GlcNAc(b1-2)Man(a1-3)[Neu5Ac(a2-6)Gal(b1-4)GlcNAc(b1-2)Man(a1-6)]Man(b1-4)GlcNAc(b1-4)GlcNAc
# Procedure, shortened: as §1
# [17] = target: Neu5Ac(a2-6)Gal(b1-4)GlcNAc(b1-2)Man(a1-3)[Neu5Ac(a2-6)Gal(b1-4)GlcNAc(b1-2)Man(a1-6)]Man(b1-4)GlcNAc(b1-4)[Fuc(a1-6)]GlcNAc
# Procedure, shortened: as §1
# [18] = target: Neu5Ac(a2-6)Gal(b1-4)GlcNAc(b1-2)Man(a1-6)Man(b1-4)GlcNAc(b1-4)GlcNAc
# Procedure, shortened: as §1
# [19] = target: Neu5Ac(a2-6)Gal(b1-4)GlcNAc(b1-2)Man(a1-6)[Gal(b1-4)GlcNAc(b1-2)Man(a1-3)]Man(b1-4)GlcNAc(b1-4)GlcNAc
# Procedure, shortened: as §1
# [20] = target: Neu5Ac(a2-6)Gal(b1-4)GlcNAc(b1-2)Man(a1-6)[GlcNAc(b1-2)Man(a1-3)]Man(b1-4)GlcNAc(b1-4)GlcNAc
# Procedure, shortened: as §1
# [21] = target: Neu5Ac(a2-6)Gal(b1-4)GlcNAc(b1-2)Man(a1-6)[Man(a1-3)]Man(b1-4)GlcNAc(b1-4)GlcNAc
# Procedure, shortened: as §1
# [22] = target: Neu5Ac(a2-6)Gal(b1-4)GlcNAc(b1-2)[Neu5Ac(a2-6)Gal(b1-4)GlcNAc(b1-4)]Man(a1-3)[GlcNAc(b1-4)][Neu5Ac(a2-6)Gal(b1-4)GlcNAc(b1-2)[Neu5Ac(a2-6)Gal(b1-4)GlcNAc(b1-6)]Man(a1-6)]Man(b1-4)GlcNAc(b1-4)GlcNAc
# Procedure, shortened: as §1
# [23] = target: Neu5Ac(a2-6)Gal(b1-4)GlcNAc(b1-2)[Neu5Ac(a2-6)Gal(b1-4)GlcNAc(b1-4)]Man(a1-3)[GlcNAc(b1-4)][Neu5Ac(a2-6)Gal(b1-4)GlcNAc(b1-4)Man(a1-6)]Man(b1-4)GlcNAc(b1-4)GlcNAc
# Procedure, shortened: as §1
# [24] = target: Neu5Ac(a2-6)Gal(b1-4)GlcNAc(b1-2)[Neu5Ac(a2-6)Gal(b1-4)GlcNAc(b1-6)]Man(a1-6)[Neu5Ac(a2-6)Gal(b1-4)GlcNAc(b1-2)Man(a1-3)][GlcNAc(b1-4)]Man(b1-4)GlcNAc(b1-4)GlcNAc
# Procedure, shortened: as §1
# [25] = target: Neu5Ac(a2-6)Gal(b1-4)GlcNAc(b1-3)Gal(b1-3)GlcNAc
# Procedure, shortened: as §1
# [26] = target: Neu5Ac(a2-6)Gal(b1-4)GlcNAc(b1-3)Gal(b1-4)GlcNAc
# Procedure, shortened: as §1
# [27] = target: Neu5Ac(a2-6)Gal(b1-4)GlcNAc(b1-3)Gal(b1-4)GlcNAc(b1-2)Man(a1-3)[Neu5Ac(a2-6)Gal(b1-4)GlcNAc(b1-3)Gal(b1-4)GlcNAc(b1-2)Man(a1-6)]GalNAc
# Procedure, shortened: as §1
# [28] = target: Neu5Ac(a2-6)Gal(b1-4)GlcNAc(b1-3)Gal(b1-4)GlcNAc(b1-3)Gal(b1-4)GlcNAc
# Procedure, shortened: as §1
# [29] = target: Neu5Ac(a2-6)Gal(b1-4)GlcNAc(b1-3)Gal(b1-4)GlcNAc(b1-3)Gal(b1-4)GlcNAc(b1-2)Man(a1-3)[Neu5Ac(a2-6)Gal(b1-4)GlcNAc(b1-3)Gal(b1-4)GlcNAc(b1-3)Gal(b1-4)GlcNAc(b1-2)Man(a1-6)]GalNAc
# Procedure, shortened: as §1
# [30] = target: Neu5Ac(a2-6)Gal(b1-4)GlcNAc(b1-3)Gal(b1-4)GlcNAc(b1-3)GalNAc
# Procedure, shortened: as §1
# [31] = target: Neu5Ac(a2-6)Gal(b1-4)GlcNAc(b1-3)Gal(b1-4)GlcNAc(b1-3)[Neu5Ac(a2-6)Gal(b1-4)GlcNAc(b1-3)Gal(b1-4)GlcNAc(b1-6)]GalNAc
# Procedure, shortened: as §1
# [32] = target: Neu5Ac(a2-6)Gal(b1-4)GlcNAc(b1-3)Gal(b1-4)GlcNAc(b1-6)[Gal(b1-3)]GalNAc
# Procedure, shortened: as §1
# [33] = target: Neu5Ac(a2-6)Gal(b1-4)GlcNAc(b1-3)Gal(b1-4)[Fuc(a1-3)]GlcNAc(b1-3)Gal(b1-4)[Fuc(a1-3)]GlcNAc
# Procedure, shortened: as §1
# [34] = target: Neu5Ac(a2-6)Gal(b1-4)GlcNAc(b1-3)GalNAc
# Procedure, shortened: as §1
binder,measurement,setting,value
B1,glycan array binding signal (z-score),[1],-0.538
same,glycan array binding signal (z-score),Neu5Ac(a2-3)GalNAc,-0.52
same,glycan array binding signal (z-score),[2],-0.215
same,glycan array binding signal (z-score),[3],-0.84
same,glycan array binding signal (z-score),[4],-0.146
same,glycan array binding signal (z-score),[5],-1.15
same,glycan array binding signal (z-score),[6],0.104
same,glycan array binding signal (z-score),Neu5Ac(a2-6)Gal,-0.678
same,glycan array binding signal (z-score),[7],-0.614
same,glycan array binding signal (z-score),Neu5Ac(a2-6)Gal(b1-4)Glc,-0.143
same,glycan array binding signal (z-score),[8],-0.808
same,glycan array binding signal (z-score),[9],-0.33
same,glycan array binding signal (z-score),[10],-0.875
same,glycan array binding signal (z-score),[11],-0.036
same,glycan array binding signal (z-score),[12],-1.17
same,glycan array binding signal (z-score),[13],0.969
same,glycan array binding signal (z-score),[14],0.035
same,glycan array binding signal (z-score),[15],2.79
same,glycan array binding signal (z-score),[16],0.398
same,glycan array binding signal (z-score),[17],-0.211
same,glycan array binding signal (z-score),[18],-0.707
same,glycan array binding signal (z-score),[19],-0.04
same,glycan array binding signal (z-score),[20],0.365
same,glycan array binding signal (z-score),[21],1.88
same,glycan array binding signal (z-score),[22],0.403
same,glycan array binding signal (z-score),[23],0.254
same,glycan array binding signal (z-score),[24],-0.876
same,glycan array binding signal (z-score),[25],-0.356
same,glycan array binding signal (z-score),[26],0.583
same,glycan array binding signal (z-score),[27],-1.33
same,glycan array binding signal (z-score),[28],0.431
same,glycan array binding signal (z-score),[29],-0.611
same,glycan array binding signal (z-score),[30],0.299
same,glycan array binding signal (z-score),[31],-0.68
same,glycan array binding signal (z-score),[32],0.378
same,glycan array binding signal (z-score),[33],-0.813
same,glycan array binding signal (z-score),[34],-0.946

# Another view of some results above:
binder | measurement | setting | value
B1 | glycan array binding signal (z-score) | [6] | 0.104
same | glycan array binding signal (z-score) | [16] | 0.398
same | glycan array binding signal (z-score) | [21] | 1.88
